Measured values published in PMC12721327.
Results are given in words; binding and its absence hold for the method and conditions named. In cells and extracts the contact can be indirect. Some results given as binding are weak or reduced against the parent protein; the word gives no strength. Where a sequence is shown, tags or fusion partners need not be part of it.

B1: Venus-MBNL1 (protein, UniProt Q9NR56-5 1-382)
chain: MAVSVTPIRDTKWLTLEVCREFQRGTCSRPDTECKFAHPSKSCQVENGRVIACFDSLKGRCSRENCKYLHPPPHLKTQLEINGRNNLIQQKNMAMLAQQMQLANAMMPGAPLQPVPMFSVAPSLATNASAAAFNPYLGPVSPSLVPAEILPTAPMLVTGNPGVPVPAAAAAAAQKLMRTDRLEVCREYQRGNCNRGENDCRFAHPADSTMIDTNDNTVTVCMDYIKGRCSREKCKYFHPPAHLQAKIKAAQYQVNQAAAAQAAATAAAMGIPQAVLPPLPKRPALEKTNGATAVFNTGIFQYQQALANMQLQQHTAFLPPGSILCMTPATSVVPMVHGATPATVSAATTSATSVPFAATATANQIPIISAEHLTSHKYVTQM
B2: Myc-QK (protein, UniProt Q91XU1 1-341)
chain: MVGEMETKENPNPTPDYLMQLMNDKKLMSSLPNFCGIFNHLERLLDEEISRVRKDMYNDTLNGSTEKRSAELPDAVGPIVQLQEKLYVPVKEYPDFNFVGRILGPRGLTAKQLEAETGCKIMVRGKGSMRDKKKEEQNRGKPNWEHLNEDLHVLITVEDAQNRAEIKLKRAVEEVKKLLVPAAEGEDSLKKMQLMELAILNGTYRDANIKSPALAFSLAATAQAAPRIITGPAPVLPPAALRTPTPAGPTIMPLIRQIQTAVMPNGTPHPTAAIVPPGPEAGLIYTPYEYPYTLAPATSILEYPIEPSGVLGAVATKVRRHDMRVHPYQRIVTADRAATGN
B3: QK5 with deletion of 285–293 (protein, UniProt Q91XU1)
chain: MVGEMETKENPNPTPDYLMQLMNDKKLMSSLPNFCGIFNHLERLLDEEISRVRKDMYNDTLNGSTEKRSAELPDAVGPIVQLQEKLYVPVKEYPDFNFVGRILGPRGLTAKQLEAETGCKIMVRGKGSMRDKKKEEQNRGKPNWEHLNEDLHVLITVEDAQNRAEIKLKRAVEEVKKLLVPAAEGEDSLKKMQLMELAILNGTYRDANIKSPALAFSLAATAQAAPRIITGPAPVLPPAALRTPTPAGPTIMPLIRQIQTAVMPNGTPHPTAAIVPPGPEAGLILAPATSILEYPIEPSGVLGAVATKVRRHDMRVHPYQRIVTADRAATGN

target: FLAG-RBPMSA (wild type) (rat); test: co-IP; pairs of epitope-tagged proteins co-expressed in HEK293T; 1 mg lysate in RIPA buffer (150 mM NaCl, 1% Triton X-100, 0.1% SDS, 50 mM Tris pH 7.5) with benzonase; anti-FLAG immunoprecipitation of FLAG-RBPMS overnight at 4°C, Protein G Dynabeads; western blot

binding, binds:
B1
B2
B3
